Data published in article PMC12087091.

Sequences of proteins named here, by UniProt entry; tags and fusion partners are left off.
UniProt P17174: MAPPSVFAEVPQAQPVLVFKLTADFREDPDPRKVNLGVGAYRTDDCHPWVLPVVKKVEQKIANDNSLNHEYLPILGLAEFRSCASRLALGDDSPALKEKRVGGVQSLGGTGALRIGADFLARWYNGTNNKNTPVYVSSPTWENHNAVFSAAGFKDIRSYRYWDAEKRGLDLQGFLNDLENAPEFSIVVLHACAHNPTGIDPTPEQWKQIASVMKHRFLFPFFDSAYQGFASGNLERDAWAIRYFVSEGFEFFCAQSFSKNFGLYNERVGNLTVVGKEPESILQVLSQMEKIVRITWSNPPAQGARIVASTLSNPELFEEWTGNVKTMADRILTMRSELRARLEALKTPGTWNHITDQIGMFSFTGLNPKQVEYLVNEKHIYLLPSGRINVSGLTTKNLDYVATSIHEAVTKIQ
UniProt P45974: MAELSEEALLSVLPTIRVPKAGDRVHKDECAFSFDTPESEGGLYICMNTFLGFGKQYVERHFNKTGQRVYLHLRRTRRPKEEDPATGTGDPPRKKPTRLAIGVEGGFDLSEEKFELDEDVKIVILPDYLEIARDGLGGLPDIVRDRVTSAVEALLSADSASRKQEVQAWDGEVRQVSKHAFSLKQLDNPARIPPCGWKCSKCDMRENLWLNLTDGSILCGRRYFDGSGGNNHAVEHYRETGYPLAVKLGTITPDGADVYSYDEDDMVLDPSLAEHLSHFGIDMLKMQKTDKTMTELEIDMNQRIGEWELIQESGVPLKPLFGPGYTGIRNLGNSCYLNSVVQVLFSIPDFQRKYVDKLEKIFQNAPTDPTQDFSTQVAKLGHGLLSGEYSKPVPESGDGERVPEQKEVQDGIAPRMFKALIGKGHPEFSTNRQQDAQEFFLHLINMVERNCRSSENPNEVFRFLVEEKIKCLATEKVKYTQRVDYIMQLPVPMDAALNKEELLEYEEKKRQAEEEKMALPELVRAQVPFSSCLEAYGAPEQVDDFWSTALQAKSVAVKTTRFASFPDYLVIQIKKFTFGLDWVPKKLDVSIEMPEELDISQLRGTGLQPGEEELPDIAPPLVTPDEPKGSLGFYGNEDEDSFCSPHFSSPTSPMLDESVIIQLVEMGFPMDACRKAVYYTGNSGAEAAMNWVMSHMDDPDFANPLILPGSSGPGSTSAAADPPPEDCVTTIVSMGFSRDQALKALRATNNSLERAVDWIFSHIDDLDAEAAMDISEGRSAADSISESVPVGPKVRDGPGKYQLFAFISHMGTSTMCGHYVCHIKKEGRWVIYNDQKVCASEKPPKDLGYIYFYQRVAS

Tests used:
[1] = molecular target: T1, Annexin A1 (ANXA1), endogenous (human (endogenous in HUCCT1 and HCCC9810)) (UniProt P04083); assay: affinity purification with mass spectrometry; IP of ANXA1 from cell lysate with antibody-conjugated magnetic beads, SDS-PAGE, bands excised, trypsin digestion, MS; cell line not stated
T1 sequence: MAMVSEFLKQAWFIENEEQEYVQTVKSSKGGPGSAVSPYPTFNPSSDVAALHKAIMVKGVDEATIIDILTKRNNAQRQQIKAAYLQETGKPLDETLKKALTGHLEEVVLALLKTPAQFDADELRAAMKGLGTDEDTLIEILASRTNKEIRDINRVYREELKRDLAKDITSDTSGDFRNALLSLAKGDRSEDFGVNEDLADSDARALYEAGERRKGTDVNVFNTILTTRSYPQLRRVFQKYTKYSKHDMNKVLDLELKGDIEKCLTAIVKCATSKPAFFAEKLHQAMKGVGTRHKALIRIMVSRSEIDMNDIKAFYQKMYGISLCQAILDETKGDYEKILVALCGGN

[2] = molecular target: Glutamic-oxaloacetic transaminase 1 (GOT1), endogenous (human (endogenous in HUCCT1 and HCCC9810)) (UniProt P17174); assay: affinity purification with mass spectrometry; IP with GOT1 as the bait protein from cell lysate with antibody-conjugated magnetic beads, SDS-PAGE, trypsin digestion, MS; cell line not stated

- binding [1]: binds
Molecule: Glutamic-oxaloacetic transaminase 1 (GOT1), endogenous (from UniProt P17174 1-413) (enzyme)

- binding [1]: binds
- binding [2]: binds
Molecule: Ubiquitin-specific protease 5 (USP5), endogenous (from UniProt P45974 1-858) (enzyme)

- binding [2]: binds
B1: Annexin A1 (ANXA1), endogenous (protein, UniProt P04083 1-346)
chain: T1 sequence

Results are given in words; binding and its absence hold for the method and conditions named. In cells and extracts the contact can be indirect. A yes stands for co-enrichment or nearness to the bait. Other partners may have been found. Each block holds one molecule with its values, some of them ahead of it.
